Assays:
Assay type in all cases: cell-based, human
[1] = test system: A549/ATCC; assay: NCI 60 cell line screen (SRB), Non-Small Cell Lung Cancer
Text: (§1) The operation of this screen utilizes 60 different human tumor cell lines, representing leukemia, melanoma and cancers of the lung, colon, brain, ovary, breast, prostate, and kidney. The aim is to prioritize for further evaluation, synthetic compounds or natural product samples showing selective growth inhibition or cell killing of particular tumor cell lines. This screen is unique in that the complexity of a 60 cell line dose response produced by a given compound results in a biological response pattern which can be utilized in pattern recognition algorithms. Using these algorithms, it is possible to assign a putative mechanism of action to a test compound, or to determine that the response pattern is unique and not similar to that of any of the standard prototype compounds included in the NCl database (see DTP Overview tab). In addition, following characterization of various cellular molecular targets in the 60 cell lines, it may be possible to select compounds most likely to interact with a specific molecular target.
(§2) The human tumor cell lines of the cancer screening panel are grown in RPMI 1640 medium containing 5% fetal bovine serum and 2 mM L-glutamine. For a typical screening experiment, cells are inoculated into 96 well microtiter plates in 100 μL at plating densities ranging from 5,000 to 40,000 cells/well depending on the doubling time of individual cell lines. After cell inoculation, the microtiter plates are incubated at 37° C., 5% CO2, 95% air and 100% relative humidity for 24 h prior to addition of experimental drugs.
(§3) After 24 h, two plates of each cell line are fixed in situ with TCA, to represent a measurement of the cell population for each cell line at the time of drug addition (Tz). Experimental drugs are solubilized in dimethyl sulfoxide at 400-fold the desired final maximum test concentration and stored frozen prior to use. At the time of drug addition, an aliquot of frozen concentrate is thawed and diluted to twice the desired final maximum test concentration with complete medium containing 50 μg/ml gentamicin. Additional four, 10-fold or ½ log serial dilutions are made to provide a total of five drug concentrations plus control. Aliquots of 100 μl of these different drug dilutions are added to the appropriate microtiter wells already containing 100 μl of medium, resulting in the required final drug concentrations.
(§4) Following drug addition, the plates are incubated for an additional 48 h at 37° C., 5% CO2, 95% air, and 100% relative humidity. For adherent cells, the assay is terminated by the addition of cold TCA. Cells are fixed in situ by the gentle addition of 50 μl of cold 50% (w/v) TCA (final concentration, 10% TCA) and incubated for 60 minutes at 4° C. The supernatant is discarded, and the plates are washed five times with tap water and air dried. Sulforhodamine B (SRB) solution (100 μl) at 0.4% (w/v) in 1% acetic acid is added to each well, and plates are incubated for 10 minutes at room temperature. After staining, unbound dye is removed by washing five times with 1% acetic acid and the plates are air dried. Bound stain is subsequently solubilized with 10 mM trizma base, and the absorbance is read on an automated plate reader at a wavelength of 515 nm. For suspension cells, the methodology is the same except that the assay is terminated by fixing settled cells at the bottom of the wells by gently adding 50 μl of 80% TCA (final concentration, 16% TCA). Using the seven absorbance measurements [time zero, (Tz), control growth, (C), and test growth in the presence of drug at the five concentration levels (Ti)], the percentage growth is calculated at each of the drug concentrations levels. Percentage growth inhibition is calculated as: [(Ti−Tz)/(C−Tz)]×100 for concentrations for which Ti>/=Tz [(Ti−Tz)/Tz]×100 for concentrations for which Ti<Tz.
(§5) Three dose response parameters are calculated for each experimental agent. […]

[2] = test system: HOP-62; assay: as above
Text: as §1, §2, §3, §4, §5

[3] = test system: HOP-92; assay: as above
Text: as §1, §2, §3, §4, §5

[4] = test system: NCI-H522; assay: as above
Text: as §1, §2, §3, §4, §5

[5] = test system: SK-MEL-28; assay: NCI 60 cell line screen (SRB), Melanoma
Text: as §1, §2, §3, §4, §5

[6] = test system: SK-MEL-2; assay: NCI 60 cell line screen (SRB), Melanoma
Text: as §1, §2, §3, §4, §5

[7] = test system: SK-MEL-5; assay: NCI 60 cell line screen (SRB), Melanoma
Text: as §1, §2, §3, §4, §5

[8] = test system: UACC-62; assay: NCI 60 cell line screen (SRB), Melanoma
Text: as §1, §2, §3, §4, §5

[9] = test system: DU-145; assay: NCI 60 cell line screen (SRB), Prostate Cancer
Text: as §1, §2, §3, §4, §5

[10] = test system: PC-3; assay: NCI 60 cell line screen (SRB), Prostate Cancer
Text: as §1, §2, §3, §4, §5

[11] = test system: BT-549; assay: NCI 60 cell line screen (SRB), Breast Cancer
Text: as §1, §2, §3, §4, §5

COc1cccc(CCNC(=O)CC(c2ccccc2)(c2ccccc2)c2ccccc2)c1 [Compound Z3]
Mean Optical Densities ([1]; Log10 Concentration −4.0): 0.369
Mean Optical Densities ([1]; Log10 Concentration −5.0): 0.503
Mean Optical Densities ([1]; Log10 Concentration −6.0): 0.825
Mean Optical Densities ([1]; Log10 Concentration −7.0): 0.851
Mean Optical Densities ([1]; Log10 Concentration −8.0): 0.895
Mean Optical Densities ([2]; HOP-62, Log10 Concentration −4.0): 0.545
Mean Optical Densities ([2]; HOP-62, Log10 Concentration −5.0): 0.722
Mean Optical Densities ([2]; HOP-62, Log10 Concentration −6.0): 0.781
Mean Optical Densities ([2]; HOP-62, Log10 Concentration −7.0): 0.811
Mean Optical Densities ([2]; HOP-62, Log10 Concentration −8.0): 0.757
Mean Optical Densities ([3]; HOP-92, Log10 Concentration −4.0): 0.924
Mean Optical Densities ([3]; HOP-92, Log10 Concentration −5.0): 0.950
Mean Optical Densities ([3]; HOP-92, Log10 Concentration −6.0): 1.181
Mean Optical Densities ([3]; HOP-92, Log10 Concentration −7.0): 1.186
Mean Optical Densities ([3]; HOP-92, Log10 Concentration −8.0): 1.227
Mean Optical Densities ([4]; NCI-H522, Log10 Concentration −4.0): 0.808
Mean Optical Densities ([4]; NCI-H522, Log10 Concentration −5.0): 0.859
Mean Optical Densities ([4]; NCI-H522, Log10 Concentration −6.0): 1.018
Mean Optical Densities ([4]; NCI-H522, Log10 Concentration −7.0): 0.976
Mean Optical Densities ([4]; NCI-H522, Log10 Concentration −8.0): 1.047
Mean Optical Densities ([5]; SK-MEL-28, Log10 Concentration −4.0): 0.472
Mean Optical Densities ([5]; SK-MEL-28, Log10 Concentration −5.0): 0.499
Mean Optical Densities ([5]; SK-MEL-28, Log10 Concentration −6.0): 0.479
Mean Optical Densities ([5]; SK-MEL-28, Log10 Concentration −7.0): 0.503
Mean Optical Densities ([5]; SK-MEL-28, Log10 Concentration −8.0): 0.444
Mean Optical Densities ([6]; SK-MEL-2, Log10 Concentration −4.0): 0.772
Mean Optical Densities ([6]; SK-MEL-2, Log10 Concentration −5.0): 0.805
Mean Optical Densities ([6]; SK-MEL-2, Log10 Concentration −6.0): 1.211
Mean Optical Densities ([6]; SK-MEL-2, Log10 Concentration −7.0): 1.144
Mean Optical Densities ([6]; SK-MEL-2, Log10 Concentration −8.0): 1.116
Mean Optical Densities ([7]; SK-MEL-5, Log10 Concentration −4.0): 0.700
Mean Optical Densities ([7]; SK-MEL-5, Log10 Concentration −5.0): 0.745
Mean Optical Densities ([7]; SK-MEL-5, Log10 Concentration −6.0): 1.438
Mean Optical Densities ([7]; SK-MEL-5, Log10 Concentration −7.0): 1.431
Mean Optical Densities ([7]; SK-MEL-5, Log10 Concentration −8.0): 1.192
Mean Optical Densities ([8]; UACC-62, Log10 Concentration −4.0): 0.783
Mean Optical Densities ([8]; UACC-62, Log10 Concentration −5.0): 0.753
Mean Optical Densities ([8]; UACC-62, Log10 Concentration −6.0): 0.861
Mean Optical Densities ([8]; UACC-62, Log10 Concentration −7.0): 1.029
Mean Optical Densities ([8]; UACC-62, Log10 Concentration −8.0): 1.074
Mean Optical Densities ([9]; DU-145, Log10 Concentration −4.0): 0.329
Mean Optical Densities ([9]; DU-145, Log10 Concentration −5.0): 0.431
Mean Optical Densities ([9]; DU-145, Log10 Concentration −6.0): 0.504
Mean Optical Densities ([9]; DU-145, Log10 Concentration −7.0): 0.521
Mean Optical Densities ([9]; DU-145, Log10 Concentration −8.0): 0.506
Mean Optical Densities ([10]; PC-3, Log10 Concentration −4.0): 0.439
Mean Optical Densities ([10]; PC-3, Log10 Concentration −5.0): 0.640
Mean Optical Densities ([10]; PC-3, Log10 Concentration −6.0): 1.008
Mean Optical Densities ([10]; PC-3, Log10 Concentration −7.0): 1.050
Mean Optical Densities ([10]; PC-3, Log10 Concentration −8.0): 1.080
Mean Optical Densities ([11]; BT-549, Log10 Concentration −4.0): 0.485
Mean Optical Densities ([11]; BT-549, Log10 Concentration −5.0): 0.518
Mean Optical Densities ([11]; BT-549, Log10 Concentration −6.0): 0.591
Mean Optical Densities ([11]; BT-549, Log10 Concentration −7.0): 0.641
Mean Optical Densities ([11]; BT-549, Log10 Concentration −8.0): 0.571
